Reference: patent US20250170096A1, “OXPHOS INHIBITORS FOR USE IN TREATING CANCER” (ImmunoMet Therapeutics, Inc., priority 2022, published 2025)
For at least one compound, name, drawing or mass did not settle the structure.

Test system: OXPHOS
Assay: Pre- and post-treatment biopsies of patients receiving cancer therapies
Format: in vivo
Conditions: for Effect of therapy on OXPHOS, post-treatment versus pre-treatment biopsies: across cancers, named as the most significant therapies
From the text: Biopsies were collected from subjects undergoing treatment for cancer (FIG. 1A).

SMILES | Effect of therapy on OXPHOS, post-treatment versus pre-treatment biopsies | OXPHOS following treatment (breast cancer, FIG. 1E) | OXPHOS following treatment (glioblastoma, FIG. 1J)
CC(=O)c1c(C)c2cnc(Nc3ccc(N4CCNCC4)cn3)nc2n(C2CCCC2)c1=O [palbociclib] | increase OXPHOS | increase in OXPHOS | –
Cn1nnc2c(C(N)=O)ncn2c1=O [temozolomide] | increase OXPHOS | – | increase in OXPHOS
